The test system of this assay is Salmonella enterica serovar Typhimurium SL1344. Put plainly: bacterial growth OD600 after 18 h with compound and polymyxin B; higher = more bacterial growth (less inhibition). The conditions noted are these: 50 µM, Mueller-Hinton broth.

Some of the results follow. These are raw signals, not scaled to a control.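 In the initial screen, polymyxin B was used at a concentration that permeabilizes Salmonella's outer membrane but not its inner membrane. Maximum growth was set by DMSO wells with or without polymyxin B. Since plates varied, data were ranked per plate, and compounds giving the lowest OD600 advanced as hits.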

`CC(C)(C)NC(=O)c1coc(COc2ccccc2)n1`: the “bacterial growth OD600” value (polymyxin B 0.75 µg/mL) was found to be 0.74.

On to `CN(Cc1cnn(C)c1)c1ccc(-c2nc(COc3ccccc3)no2)cn1`, for which, where the note is “polymyxin B 1 µg/mL”, the “bacterial growth OD600” value came to 0.656.

For the compound `Cc1ccc(CNC(=O)c2cc(NC(=O)C3CCCO3)c3c(c2)nc(C2CCC2)n3C)cc1` (stereo not given), the “bacterial growth OD600” value (polymyxin B 0.75 µg/mL) stood at 0.843.

For `O=C(CCC1CCN(Cc2cccn2-c2cccnc2)CC1)NCC1CCCO1` (stereo not given), the “bacterial growth OD600” value (polymyxin B 0.75 µg/mL) was 0.792.

Consider `CCO[C@H]1[C@H](NC(=O)c2cccnc2)c2ccccc2C12CCN(C(=O)c1cc3ccccc3[nH]1)CC2`, for which the “bacterial growth OD600” value (polymyxin B 0.75 µg/mL) is 0.707.

Turning to `Cc1ccc(CC(C)N2CCC(n3nccc3NC(=O)CC(C)C)CC2)nc1` (stereo not given), the “bacterial growth OD600” value (polymyxin B 0.75 µg/mL) was 0.78.

Take `COCC(=O)N1CCC2(CCCN(Cc3ccc(F)cc3)C2=O)C1` (stereo not given): the “bacterial growth OD600” value (polymyxin B 1 µg/mL) turned out to be 1.08.

On to `CCOc1ccc(CN2CCN(Cc3cccc(C)c3)CC2CCO)cc1` (stereo not given), for which, under “polymyxin B 1 µg/mL”, the “bacterial growth OD600” value turned out to be 0.872.

As to `COc1ccc(OC)c(CN2CCC(C(Cc3ccccc3Cl)N(C)C(=O)c3ccco3)CC2)c1` (stereo not given), the “bacterial growth OD600” value (polymyxin B 0.75 µg/mL) came to 0.93.

With `O=C(Nc1ccnn1C1CCN(CCCC2CCCC2)CC1)C1CCOC1` (stereo not given), where the note is “polymyxin B 1 µg/mL”, the “bacterial growth OD600” value was found to be 1.03.

On to `CCS(=O)(=O)Nc1cc(C(=O)NCC(C)Oc2cccnc2)c2c(c1)nc(-c1ccccc1)n2C` (stereo not given), for which the “bacterial growth OD600” value (polymyxin B 0.75 µg/mL) was 0.811.

Take `COCC1CCCCN1C(=O)CCc1nnc(Cc2cc(OC)ccc2OC)o1` (stereo not given): the “bacterial growth OD600” value (polymyxin B 1 µg/mL) is 0.995.

For the compound `O=C(c1ccc(F)c(F)c1)N1CCCC(Nc2ccc(F)cc2)C1` (stereo not given), the “bacterial growth OD600” value (polymyxin B 1 µg/mL) was found to be 0.827.

Consider `Cc1ccc(C)c(-n2cc(CN3CCC(C(N)=O)CC3)c(-c3ccccc3)n2)c1`, for which the “bacterial growth OD600” value (polymyxin B 1 µg/mL) turned out to be 0.97.

Regarding `CC(=O)Nc1ccc(CN2CCc3c([nH]c4ccccc34)C2C(C)(C)C)cc1` (stereo not given), for the setting “polymyxin B 1 µg/mL”, the “bacterial growth OD600” value turned out to be 0.934.

Regarding `O=C1CCCc2occ(C(=O)N3CCOc4ccc(CN5CCN(c6ncccn6)CC5)cc4C3)c21`, the “bacterial growth OD600” value (polymyxin B 0.75 µg/mL) came out at 0.819.

Turning to `O=C1N(CC2CCC2)CCCC1(O)CNCC1CCCCC1` (stereo not given), the “bacterial growth OD600” value (polymyxin B 1 µg/mL) worked out at 0.841.

For the compound `COc1ccc(NC2CCCN(C(=O)c3ccc4c(c3)C(=O)N(C)C4=O)C2)cc1` (stereo not given), the “bacterial growth OD600” value (polymyxin B 1 µg/mL) came out at 0.957.

Consider `CCOC(=O)C1(Cc2ccc(Cl)cc2)CCN(C2CCC2)CC1`, for which the “bacterial growth OD600” value (polymyxin B 1 µg/mL) was 0.977.

Turning to `COc1ccc(C(CC(=O)NCc2ccccn2)c2ccccc2)cc1` (stereo not given), the “bacterial growth OD600” value (polymyxin B 1 µg/mL) stood at 0.817.

In the case of `CC(C)CS(=O)(=O)c1ncc(CN2CCCCC2CCO)n1Cc1ccccc1` (stereo not given), for the setting “polymyxin B 1 µg/mL”, the “bacterial growth OD600” value stood at 0.007.

On to `CC(=O)N1CCCC(CNc2ccc(-c3nc(C(C)C)no3)cn2)C1` (stereo not given), for which the “bacterial growth OD600” value (polymyxin B 0.75 µg/mL) was 0.968.

For `CN(Cc1ccccc1)Cc1cc(C(=O)N(C)Cc2cnn(C)c2)no1`, where the note is “polymyxin B 0.75 µg/mL”, the “bacterial growth OD600” value stood at 0.833.

Regarding `Cc1ccc(CCC(=O)N2CCC(CCC(=O)NC3CC3)CC2)cc1`, the “bacterial growth OD600” value (polymyxin B 1 µg/mL) is 0.848.

Take `CC(C)N(Cc1nccn1C)c1nc2nonc2nc1NCc1cccs1`: the “bacterial growth OD600” value (polymyxin B 0.75 µg/mL) was 0.967.

In the case of `CCOc1cc(CN2CCN(C(C)C)C(CCO)C2)ccc1O` (stereo not given), the “bacterial growth OD600” value (polymyxin B 1 µg/mL) was 1.13.

In the case of `Cc1cccc(C(=O)N2CCC(C3CCN(Cc4cccc(F)c4F)CC3)C2)n1` (stereo not given), for the setting “polymyxin B 0.75 µg/mL”, the “bacterial growth OD600” value was 0.813.

On to `COc1ccc(CCNc2ncnc3sc(C(=O)N(C)CCc4ccccn4)c(C)c23)cc1OC`, for which the “bacterial growth OD600” value (polymyxin B 0.75 µg/mL) was determined as 0.853.

Regarding `COc1ccc(CN(C)CC2CCN(CCc3cccc(F)c3)CC2)c(OC)c1OC`, the “bacterial growth OD600” value (polymyxin B 0.75 µg/mL) turned out to be 0.765.

For the compound `CN1C(=O)CC(CC(=O)N2CCCC(C(=O)c3nccn3C)C2)(c2ccc(-c3ccccc3)cc2)C1=O` (stereo not given), the “bacterial growth OD600” value (polymyxin B 0.75 µg/mL) was -0.016.
